These are yes or no findings as the source states them, for the method shown. In cells and extracts the contact can be indirect. A result given as binding can be weak or reduced; the word gives no strength.

Amino acid sequences for entries named in this document (tags omitted). A change or cut given only in a name is not applied to a line headed by its entry. Chains listed by the source or under a name are the forms on record and can include a tag or linker.
HBH-ΔF508-CFTR-3HA (P13569, form named): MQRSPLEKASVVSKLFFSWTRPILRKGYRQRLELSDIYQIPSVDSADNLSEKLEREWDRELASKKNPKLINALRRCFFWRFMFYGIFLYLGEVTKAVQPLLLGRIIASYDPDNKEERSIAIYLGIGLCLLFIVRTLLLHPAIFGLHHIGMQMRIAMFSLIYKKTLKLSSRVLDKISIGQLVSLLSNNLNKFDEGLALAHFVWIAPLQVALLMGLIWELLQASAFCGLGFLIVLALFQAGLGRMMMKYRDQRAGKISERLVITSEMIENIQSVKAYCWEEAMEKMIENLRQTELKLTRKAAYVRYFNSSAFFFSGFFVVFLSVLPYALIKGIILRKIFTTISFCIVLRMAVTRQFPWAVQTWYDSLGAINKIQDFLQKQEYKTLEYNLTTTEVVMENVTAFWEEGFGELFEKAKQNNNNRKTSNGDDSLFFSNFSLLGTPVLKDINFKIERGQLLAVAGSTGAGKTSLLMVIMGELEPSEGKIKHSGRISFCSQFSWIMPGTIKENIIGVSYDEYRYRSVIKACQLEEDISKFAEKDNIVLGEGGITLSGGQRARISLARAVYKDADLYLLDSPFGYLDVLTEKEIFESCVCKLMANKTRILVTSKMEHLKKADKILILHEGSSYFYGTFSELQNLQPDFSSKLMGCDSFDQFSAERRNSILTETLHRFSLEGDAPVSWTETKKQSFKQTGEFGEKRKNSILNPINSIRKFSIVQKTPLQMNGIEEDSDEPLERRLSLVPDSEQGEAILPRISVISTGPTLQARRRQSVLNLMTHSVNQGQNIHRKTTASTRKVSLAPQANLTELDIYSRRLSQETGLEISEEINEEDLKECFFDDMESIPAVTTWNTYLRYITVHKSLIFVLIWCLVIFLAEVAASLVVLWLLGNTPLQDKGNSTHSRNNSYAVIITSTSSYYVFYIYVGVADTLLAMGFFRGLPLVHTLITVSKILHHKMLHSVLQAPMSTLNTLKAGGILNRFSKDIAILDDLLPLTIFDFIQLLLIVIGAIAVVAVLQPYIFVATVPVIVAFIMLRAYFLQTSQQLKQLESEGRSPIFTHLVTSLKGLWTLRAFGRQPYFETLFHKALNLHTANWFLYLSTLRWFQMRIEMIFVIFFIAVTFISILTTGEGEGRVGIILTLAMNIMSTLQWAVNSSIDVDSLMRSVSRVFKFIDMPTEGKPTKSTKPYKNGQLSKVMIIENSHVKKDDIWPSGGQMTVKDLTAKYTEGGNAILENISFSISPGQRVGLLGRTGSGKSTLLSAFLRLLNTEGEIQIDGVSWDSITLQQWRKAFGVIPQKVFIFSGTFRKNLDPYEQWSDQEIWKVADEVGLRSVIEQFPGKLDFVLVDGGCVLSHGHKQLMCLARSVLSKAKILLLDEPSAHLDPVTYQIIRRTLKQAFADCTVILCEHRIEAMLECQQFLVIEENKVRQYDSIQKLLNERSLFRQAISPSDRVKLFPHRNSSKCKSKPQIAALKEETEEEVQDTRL
UniProt Q9UHD9: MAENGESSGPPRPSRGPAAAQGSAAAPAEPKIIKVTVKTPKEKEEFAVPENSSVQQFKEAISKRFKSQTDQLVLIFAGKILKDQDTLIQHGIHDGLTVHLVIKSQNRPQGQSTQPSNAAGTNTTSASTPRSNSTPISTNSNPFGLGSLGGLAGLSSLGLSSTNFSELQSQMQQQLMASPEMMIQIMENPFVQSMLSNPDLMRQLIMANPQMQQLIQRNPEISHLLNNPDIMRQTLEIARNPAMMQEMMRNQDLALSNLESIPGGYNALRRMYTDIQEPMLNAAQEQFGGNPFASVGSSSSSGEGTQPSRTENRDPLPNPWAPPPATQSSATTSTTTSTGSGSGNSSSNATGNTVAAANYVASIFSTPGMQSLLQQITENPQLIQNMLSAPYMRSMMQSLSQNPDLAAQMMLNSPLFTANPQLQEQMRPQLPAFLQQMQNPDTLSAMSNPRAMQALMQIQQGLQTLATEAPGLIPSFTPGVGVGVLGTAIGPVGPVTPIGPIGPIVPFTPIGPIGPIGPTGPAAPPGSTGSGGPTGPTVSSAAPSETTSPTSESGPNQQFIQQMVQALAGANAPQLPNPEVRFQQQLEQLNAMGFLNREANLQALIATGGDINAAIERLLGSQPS

The assay deals with HBH-ΔF508-CFTR-3HA (BHK cells) (UniProt P13569). The assay can be described thus: pull-down.

Turning to “FLAG-UBQLN2 with the central M domain (M) deleted (from UniProt Q9UHD9)”, the binding result is given as “binds”.

For the origin of these results see paper doi:10.1101/2023.10.16.562477.
